Source: US20080064679A1, “Water Soluble Cannabinoids” (priority 2004, published 2008)
Several values for one entry are separate records, joined by “and”; a condition that tells them apart may be missing. Equal entries are not always repeated. For some assays here: At least one read-out could not be matched to a standard name with certainty. Some entries share one result that the patent states for a list of compounds.

The chains behind the UniProt entries cited, without tags or fusion partners.
UniProt P21554, whole entry: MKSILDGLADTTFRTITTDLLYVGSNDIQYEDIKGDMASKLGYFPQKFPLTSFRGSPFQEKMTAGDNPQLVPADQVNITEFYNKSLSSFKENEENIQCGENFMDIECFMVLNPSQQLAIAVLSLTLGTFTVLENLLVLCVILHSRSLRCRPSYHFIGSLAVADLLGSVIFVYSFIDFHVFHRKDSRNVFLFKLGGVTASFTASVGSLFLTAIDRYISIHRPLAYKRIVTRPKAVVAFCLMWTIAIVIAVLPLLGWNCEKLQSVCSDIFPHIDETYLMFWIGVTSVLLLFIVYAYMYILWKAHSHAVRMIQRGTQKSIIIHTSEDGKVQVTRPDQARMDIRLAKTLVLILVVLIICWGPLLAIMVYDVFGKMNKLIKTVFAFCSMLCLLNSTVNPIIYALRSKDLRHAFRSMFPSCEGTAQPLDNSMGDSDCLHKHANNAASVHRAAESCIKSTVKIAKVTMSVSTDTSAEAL

Experiments:
mice = experiment: Tetrad model, all four behavioral measures together (time course, oral and i.c.v. administration); format: in vivo, mouse; conditions: for In vivo potency relative to Δ^9-THC (times more potent): 1:1:18 vehicle
human CB1 receptor = target: T1, human CB1 receptor (Homo sapiens, UniProt P21554); experiment: [35S]GTPγS binding assay in membranes of CB1 expressing cells; format: biochemical; conditions: maximal GTPγS binding as percentage of stimulation produced by CP 55,940
T1 construct: expressed in transfected cells; b94 says CHO for CB1
Procedure: For the in vivo studies, the drugs were dissolved in either saline or emulphor:ethanol:saline (E:E:S) as indicated.
cLogP calculations. Absolute solubility determinations were not performed. Rather, cLogP calculations were performed using the CS ChemDraw Ultra software (Cambridge Soft Corporation, Cambridge, Mass.). Receptor Binding. HEK-293 cells stably expressing the human CB1 receptor were cultured in DMEM with 10% FBS and Chinese Hamster Ovary (CHO) cells stably expressing the human CB2 receptor were cultured in DMEM with 10% FCS. Cells were harvested by replacement of the media with cold phosphate-buffered saline containing 1 mM EDTA followed by centrifugation at 1000×g for 5 min at 4° C. […] The resulting P2 pellet was resuspended in assay buffer (50 mM Tris-HCl (pH 7.4), 3 mM MgCl2, 0.2 mM EGTA, and 100 mM NaCl) and protein was determined by the method of Bradford ENRfu(Bradford 1976). […] Bound radioactivity was determined by liquid scintillation spectrophotometry at 50% efficiency after extraction by shaking samples for 30-60 min with Budget-Solve scintillation fluid. […] Ki values were calculated from displacement data using EBDA (Equilibrium Binding Data Analysis; BIOSOFT, Milltown, N.J.). […] Basal binding was assessed in the absence of agonist, and nonspecific binding was measured in the presence of 10 μM GTPγS. […]

Structure (SMILES)	In vivo potency relative to Δ^9-THC (times more potent) (mice)	Fold less potent in producing hypothermia and catalepsy than hypoactivity and analgesia (mice)	other results
CC1=CC[C@@H]2[C@@H](C1)c1c(O)cc(C(C)(C)CCCCC(=O)N3CCOCC3)cc1OC2(C)C [O-2372, Morpholino-carboxamido]	100-200 fold	–	–
CC1=CC[C@@H]2[C@@H](C1)c1c(O)cc(C(C)(C)CCCCC(=O)N3CCCCC3)cc1OC2(C)C [O-2373, Piperidino-carboxamido]	100-200 fold	–	–
CC1=CC[C@@H]2[C@@H](C1)c1c(O)cc(C(C)(C)CCCCC(=O)NN3CCCCCC3)cc1OC2(C)C [O-2489, N-(Homo-piperidin-1-yl)-carboxamido]	–	4-25 fold	–
CC1=CC[C@@H]2[C@@H](C1)c1c(O)cc(C(C)(C)CCCCC(=O)NN3CCCC3)cc1OC2(C)C [O-2543, N-(Pyrrolidin-yl)-carboxamido]	–	4-25 fold	–
CC1=CC[C@@H]2[C@@H](C1)c1c(O)cc(C(C)(C)CCCCn3ccnc3)cc1OC2(C)C [O-2545, Imidazol-1-yl]	–	–	CB1 % CP Stim (human CB1 receptor): 107 ± 6.19% and 84 ± 5.01%
